Experimental data as given in article PMC3126838.
Results are given in words; binding and its absence hold for the method and conditions named. For some assays here: Binding seen in cells or lysates may run through a third protein. Some entries that bind do so weakly or less than the wild type. For some assays here: Sequences can lack the tags named with a protein. One block for each binder: values may come before it.

Tests used:
[1] = biological target: T1, TAP-Nop58p (S. cerevisiae), Q12499; experiment: co-IP; TAP-tagged protein from yeast total extract on IgG-Sepharose, 2 h at 4°C, washed with TMN buffer (10 mM Tris pH 7.6, 100 mM NaCl, 5 mM MgCl2, 0.1% Nonidet P-40), eluted with TEV protease; immunoblot for a second subunit; conditions: remark: other sources report otherwise
T1 chain: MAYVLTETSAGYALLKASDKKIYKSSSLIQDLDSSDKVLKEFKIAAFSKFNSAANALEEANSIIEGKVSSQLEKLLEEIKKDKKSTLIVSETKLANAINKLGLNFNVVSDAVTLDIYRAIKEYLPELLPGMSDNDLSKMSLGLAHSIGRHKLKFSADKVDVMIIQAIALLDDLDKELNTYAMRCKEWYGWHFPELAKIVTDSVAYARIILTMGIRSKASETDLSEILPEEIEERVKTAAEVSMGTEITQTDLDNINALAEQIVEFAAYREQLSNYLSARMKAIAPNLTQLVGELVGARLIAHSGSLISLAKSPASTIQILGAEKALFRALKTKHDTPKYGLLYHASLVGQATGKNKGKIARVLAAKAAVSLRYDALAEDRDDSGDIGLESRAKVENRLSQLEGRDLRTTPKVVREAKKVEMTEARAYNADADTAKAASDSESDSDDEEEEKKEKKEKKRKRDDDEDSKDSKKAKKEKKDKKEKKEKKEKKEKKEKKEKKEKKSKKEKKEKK

[2] = biological target: T2, Nip7p fused to the lexA DNA binding domain (S. cerevisiae) (UniProt Q08962); experiment: two-hybrid; Nop8p truncation mutants fused to Gal4p AD, Nip7p fused to lexA BD; host strain L40; reporters HIS3 (-His, 1 mM 3-aminotriazole) and lacZ (X-Gal)
T2 sequence: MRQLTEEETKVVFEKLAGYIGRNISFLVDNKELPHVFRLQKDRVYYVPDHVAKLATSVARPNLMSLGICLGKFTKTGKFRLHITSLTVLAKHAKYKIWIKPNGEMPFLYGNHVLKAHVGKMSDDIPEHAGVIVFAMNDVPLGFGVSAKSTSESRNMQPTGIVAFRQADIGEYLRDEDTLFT

[3] = biological target: T3, Trf4p as a two-hybrid fusion (S. cerevisiae) (UniProt P53632); experiment: two-hybrid; data not shown; Nop8p tested against TRAMP proteins
T3 sequence: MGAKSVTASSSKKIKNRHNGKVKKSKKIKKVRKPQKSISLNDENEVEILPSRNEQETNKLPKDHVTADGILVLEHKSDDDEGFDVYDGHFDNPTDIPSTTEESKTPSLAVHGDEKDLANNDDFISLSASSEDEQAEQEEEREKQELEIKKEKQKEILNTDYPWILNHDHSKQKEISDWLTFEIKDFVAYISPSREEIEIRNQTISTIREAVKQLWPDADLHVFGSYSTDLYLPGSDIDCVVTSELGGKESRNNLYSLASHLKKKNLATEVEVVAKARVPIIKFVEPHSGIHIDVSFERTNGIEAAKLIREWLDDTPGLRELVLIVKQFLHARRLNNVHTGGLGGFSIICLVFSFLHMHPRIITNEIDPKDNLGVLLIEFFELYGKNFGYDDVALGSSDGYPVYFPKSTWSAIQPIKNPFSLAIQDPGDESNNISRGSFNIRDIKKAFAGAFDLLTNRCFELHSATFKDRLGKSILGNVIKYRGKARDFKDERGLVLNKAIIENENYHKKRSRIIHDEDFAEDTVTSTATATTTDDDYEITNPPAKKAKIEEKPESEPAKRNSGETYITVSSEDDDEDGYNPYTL

[4] = biological target: T4, Rrp6p as a two-hybrid fusion (S. cerevisiae) (UniProt Q12149); experiment: two-hybrid; data not shown; Nop8p tested against exosome subunits
T4 sequence: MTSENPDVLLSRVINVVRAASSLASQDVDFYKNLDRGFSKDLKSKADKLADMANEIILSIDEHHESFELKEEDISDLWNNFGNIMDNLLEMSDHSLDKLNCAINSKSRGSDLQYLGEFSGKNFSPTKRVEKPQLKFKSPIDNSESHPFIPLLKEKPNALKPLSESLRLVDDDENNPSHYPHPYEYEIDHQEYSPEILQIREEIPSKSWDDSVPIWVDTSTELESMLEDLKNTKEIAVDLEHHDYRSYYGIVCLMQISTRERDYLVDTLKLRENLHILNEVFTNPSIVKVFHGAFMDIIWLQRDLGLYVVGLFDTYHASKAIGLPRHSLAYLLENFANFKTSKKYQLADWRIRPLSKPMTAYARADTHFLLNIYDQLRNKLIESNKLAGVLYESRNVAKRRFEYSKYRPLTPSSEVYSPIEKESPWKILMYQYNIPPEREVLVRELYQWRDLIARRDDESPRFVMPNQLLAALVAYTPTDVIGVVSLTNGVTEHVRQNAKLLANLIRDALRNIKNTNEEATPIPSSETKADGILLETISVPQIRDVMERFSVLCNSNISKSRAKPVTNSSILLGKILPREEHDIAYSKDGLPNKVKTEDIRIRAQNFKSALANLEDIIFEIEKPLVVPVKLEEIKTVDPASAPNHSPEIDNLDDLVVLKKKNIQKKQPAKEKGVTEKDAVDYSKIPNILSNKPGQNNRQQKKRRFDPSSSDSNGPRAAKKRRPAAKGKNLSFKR

[5] = biological target: T5, TAP-Rrp43p (S. cerevisiae) (UniProt P25359); experiment: co-IP; TAP-tagged protein from yeast total extract on IgG-Sepharose, 2 h at 4°C, washed with TMN buffer (10 mM Tris pH 7.6, 100 mM NaCl, 5 mM MgCl2, 0.1% Nonidet P-40), eluted with TEV protease; immunoblot for a second subunit
T5 sequence: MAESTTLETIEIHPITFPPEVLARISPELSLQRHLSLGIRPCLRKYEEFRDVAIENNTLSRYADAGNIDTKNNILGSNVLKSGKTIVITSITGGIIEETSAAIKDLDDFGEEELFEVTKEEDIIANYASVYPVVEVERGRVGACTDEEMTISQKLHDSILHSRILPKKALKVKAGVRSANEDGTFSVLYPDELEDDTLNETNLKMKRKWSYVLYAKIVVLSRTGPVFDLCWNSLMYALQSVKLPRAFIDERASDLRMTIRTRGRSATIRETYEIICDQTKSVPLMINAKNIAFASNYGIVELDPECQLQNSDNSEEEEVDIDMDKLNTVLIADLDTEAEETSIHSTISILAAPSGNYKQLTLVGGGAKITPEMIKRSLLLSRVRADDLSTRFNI

binding [1]: binds
B1: Nop1p, P15646 1-327 (protein)
chain: MSFRPGSRGGSRGGSRGGFGGRGGSRGGARGGSRGGFGGRGGSRGGARGGSRGGFGGRGGSRGGARGGSRGGRGGAAGGARGGAKVVIEPHRHAGVYIARGKEDLLVTKNMAPGESVYGEKRISVEEPSKEDGVPPTKVEYRVWNPFRSKLAAGIMGGLDELFIAPGKKVLYLGAASGTSVSHVSDVVGPEGVVYAVEFSHRPGRELISMAKKRPNIIPIIEDARHPQKYRMLIGMVDCVFADVAQPDQARIIALNSHMFLKDQGGVVISIKANCIDSTVDAETVFAREVQKLREERIKPLEQLTLEPYERDHCIVVGRYMRSGLKK

binding [2]: binds
B2: C-Nop8p (Nop8p residues 221-484) fused to the Gal4p transcription activation domain (domain or fragment, UniProt Q08287 221-484)
chain: VSKDENVCSGEMDSDENMSEEEKEKNNVILNDLLKDFDFDKPMTLNDSDEELLTEQRKGEEEEEEEEEKEVNAPEYENVNKTKDQSTLPQEKPEERKEQDEGDGQEDNEFIPTFTKEIGQGTISNTETLRNLFNPNEAEPVSQFKLIEDSDNDIDHAKDVDVNQLEEEVSKSSDTLGLTSAPVPHVSRDKDNKNFLFFPHLQSPFLVGQTQLSKVRAPGRETMLSNWDEEFWANRGNWTRDMRRKMKDALKHRKRKQSKSGLLL

binding [3]: binds weakly | binding [4]: binds
B3: Nop8p as a two-hybrid fusion (protein, UniProt Q08287 1-484)
chain: MDSVIQKRIFVGNIFHNADDCYSELLDRFGKFGDCQDFQFEKHNHFAFIDIRFNDEADFNKLRKSFNNVKFKGNILKVDEAKPNWESTWAVQHAKDLKEDIILNAKMKKKNWQHYKKMENVAKSWKDHKEVIAGRMREAPRKRSQLRNITFRINVNGSLKVYKCYKTKLWGYERNKELNDLVYKFTNNFWKNGYNHIVDRLDYSRAVKTVRFKNGLKQLTVSKDENVCSGEMDSDENMSEEEKEKNNVILNDLLKDFDFDKPMTLNDSDEELLTEQRKGEEEEEEEEEKEVNAPEYENVNKTKDQSTLPQEKPEERKEQDEGDGQEDNEFIPTFTKEIGQGTISNTETLRNLFNPNEAEPVSQFKLIEDSDNDIDHAKDVDVNQLEEEVSKSSDTLGLTSAPVPHVSRDKDNKNFLFFPHLQSPFLVGQTQLSKVRAPGRETMLSNWDEEFWANRGNWTRDMRRKMKDALKHRKRKQSKSGLLL

binding [5]: binds
B4: Mtr3p (protein, UniProt P48240 1-250)
chain: MNVQDRRRLLGPAAAKPMAFSNTTTHVPEKKSTDLTPKGNESEQELSLHTGFIENCNGSALVEARSLGHQTSLITAVYGPRSIRGSFTSQGTISIQLKNGLLEKYNTNELKEVSSFLMGIFNSVVNLSRYPKSGIDIFVYLTYDKDLTNNPQDDDSQSKMMSSQISSLIPHCITSITLALADAGIELVDMAGAGEANGTVVSFIKNGEEIVGFWKDDGDDEDLLECLDRCKEQYNRYRDLMISCLMNQET
